From article PMC5826258
No constants are given. Whether binding was seen depends on the method and setting. Binding seen in cells or lysates may run through a third protein. Here binding means that the protein was enriched with, or labelled near, the bait; the list need not be complete.

Chains of the proteins cited; added tags and fusions are not shown.
UniProt Q8CIR4: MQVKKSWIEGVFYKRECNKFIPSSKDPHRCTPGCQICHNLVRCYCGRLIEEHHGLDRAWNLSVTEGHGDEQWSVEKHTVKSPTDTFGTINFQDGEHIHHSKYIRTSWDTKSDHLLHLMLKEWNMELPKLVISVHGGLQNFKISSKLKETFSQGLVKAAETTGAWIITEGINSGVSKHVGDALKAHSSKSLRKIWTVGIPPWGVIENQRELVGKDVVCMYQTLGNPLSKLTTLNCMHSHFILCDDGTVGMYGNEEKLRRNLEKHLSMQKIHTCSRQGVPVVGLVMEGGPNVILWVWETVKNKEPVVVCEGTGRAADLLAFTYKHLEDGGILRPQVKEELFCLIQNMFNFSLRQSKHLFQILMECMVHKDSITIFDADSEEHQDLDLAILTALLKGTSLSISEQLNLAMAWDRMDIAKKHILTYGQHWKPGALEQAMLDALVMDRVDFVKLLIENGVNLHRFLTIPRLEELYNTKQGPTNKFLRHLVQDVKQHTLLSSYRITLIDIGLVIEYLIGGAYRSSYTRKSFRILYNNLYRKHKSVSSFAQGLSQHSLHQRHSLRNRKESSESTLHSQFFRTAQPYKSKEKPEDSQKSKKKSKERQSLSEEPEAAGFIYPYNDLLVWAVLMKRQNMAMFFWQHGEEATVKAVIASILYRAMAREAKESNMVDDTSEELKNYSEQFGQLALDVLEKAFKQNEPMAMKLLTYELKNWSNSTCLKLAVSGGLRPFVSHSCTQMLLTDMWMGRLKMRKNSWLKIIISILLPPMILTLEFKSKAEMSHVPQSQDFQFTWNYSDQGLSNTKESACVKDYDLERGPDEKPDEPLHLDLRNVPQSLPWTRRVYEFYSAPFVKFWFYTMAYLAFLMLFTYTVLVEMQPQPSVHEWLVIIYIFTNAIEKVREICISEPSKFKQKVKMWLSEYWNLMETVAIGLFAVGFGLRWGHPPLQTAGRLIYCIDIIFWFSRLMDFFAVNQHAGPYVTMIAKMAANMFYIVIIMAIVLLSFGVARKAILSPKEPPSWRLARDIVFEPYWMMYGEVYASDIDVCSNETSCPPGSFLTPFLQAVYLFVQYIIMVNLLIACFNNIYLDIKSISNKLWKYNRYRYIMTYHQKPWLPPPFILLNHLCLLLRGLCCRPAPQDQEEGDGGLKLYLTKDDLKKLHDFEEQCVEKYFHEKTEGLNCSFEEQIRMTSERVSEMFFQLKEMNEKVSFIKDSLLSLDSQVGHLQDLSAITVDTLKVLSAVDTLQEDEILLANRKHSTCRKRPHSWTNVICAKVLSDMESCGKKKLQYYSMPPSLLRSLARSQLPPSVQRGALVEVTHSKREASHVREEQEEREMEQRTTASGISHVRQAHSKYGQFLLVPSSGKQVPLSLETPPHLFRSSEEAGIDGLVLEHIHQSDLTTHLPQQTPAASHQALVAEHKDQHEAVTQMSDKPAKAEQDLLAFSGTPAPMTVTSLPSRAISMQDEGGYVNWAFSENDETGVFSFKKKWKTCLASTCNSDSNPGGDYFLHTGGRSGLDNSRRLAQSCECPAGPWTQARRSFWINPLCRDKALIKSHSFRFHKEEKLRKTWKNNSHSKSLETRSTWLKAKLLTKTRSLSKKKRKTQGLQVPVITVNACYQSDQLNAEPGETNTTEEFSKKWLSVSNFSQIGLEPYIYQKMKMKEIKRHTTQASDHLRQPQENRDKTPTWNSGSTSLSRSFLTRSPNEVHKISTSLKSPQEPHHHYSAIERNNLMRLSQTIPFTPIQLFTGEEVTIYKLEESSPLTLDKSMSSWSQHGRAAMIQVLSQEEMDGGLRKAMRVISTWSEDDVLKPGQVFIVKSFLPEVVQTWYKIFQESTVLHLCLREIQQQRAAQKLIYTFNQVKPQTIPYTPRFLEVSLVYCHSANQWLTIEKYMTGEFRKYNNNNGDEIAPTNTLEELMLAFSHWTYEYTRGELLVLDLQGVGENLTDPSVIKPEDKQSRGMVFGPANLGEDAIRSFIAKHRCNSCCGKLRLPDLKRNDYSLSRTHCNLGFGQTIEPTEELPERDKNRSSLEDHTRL
UniProt Q923J1: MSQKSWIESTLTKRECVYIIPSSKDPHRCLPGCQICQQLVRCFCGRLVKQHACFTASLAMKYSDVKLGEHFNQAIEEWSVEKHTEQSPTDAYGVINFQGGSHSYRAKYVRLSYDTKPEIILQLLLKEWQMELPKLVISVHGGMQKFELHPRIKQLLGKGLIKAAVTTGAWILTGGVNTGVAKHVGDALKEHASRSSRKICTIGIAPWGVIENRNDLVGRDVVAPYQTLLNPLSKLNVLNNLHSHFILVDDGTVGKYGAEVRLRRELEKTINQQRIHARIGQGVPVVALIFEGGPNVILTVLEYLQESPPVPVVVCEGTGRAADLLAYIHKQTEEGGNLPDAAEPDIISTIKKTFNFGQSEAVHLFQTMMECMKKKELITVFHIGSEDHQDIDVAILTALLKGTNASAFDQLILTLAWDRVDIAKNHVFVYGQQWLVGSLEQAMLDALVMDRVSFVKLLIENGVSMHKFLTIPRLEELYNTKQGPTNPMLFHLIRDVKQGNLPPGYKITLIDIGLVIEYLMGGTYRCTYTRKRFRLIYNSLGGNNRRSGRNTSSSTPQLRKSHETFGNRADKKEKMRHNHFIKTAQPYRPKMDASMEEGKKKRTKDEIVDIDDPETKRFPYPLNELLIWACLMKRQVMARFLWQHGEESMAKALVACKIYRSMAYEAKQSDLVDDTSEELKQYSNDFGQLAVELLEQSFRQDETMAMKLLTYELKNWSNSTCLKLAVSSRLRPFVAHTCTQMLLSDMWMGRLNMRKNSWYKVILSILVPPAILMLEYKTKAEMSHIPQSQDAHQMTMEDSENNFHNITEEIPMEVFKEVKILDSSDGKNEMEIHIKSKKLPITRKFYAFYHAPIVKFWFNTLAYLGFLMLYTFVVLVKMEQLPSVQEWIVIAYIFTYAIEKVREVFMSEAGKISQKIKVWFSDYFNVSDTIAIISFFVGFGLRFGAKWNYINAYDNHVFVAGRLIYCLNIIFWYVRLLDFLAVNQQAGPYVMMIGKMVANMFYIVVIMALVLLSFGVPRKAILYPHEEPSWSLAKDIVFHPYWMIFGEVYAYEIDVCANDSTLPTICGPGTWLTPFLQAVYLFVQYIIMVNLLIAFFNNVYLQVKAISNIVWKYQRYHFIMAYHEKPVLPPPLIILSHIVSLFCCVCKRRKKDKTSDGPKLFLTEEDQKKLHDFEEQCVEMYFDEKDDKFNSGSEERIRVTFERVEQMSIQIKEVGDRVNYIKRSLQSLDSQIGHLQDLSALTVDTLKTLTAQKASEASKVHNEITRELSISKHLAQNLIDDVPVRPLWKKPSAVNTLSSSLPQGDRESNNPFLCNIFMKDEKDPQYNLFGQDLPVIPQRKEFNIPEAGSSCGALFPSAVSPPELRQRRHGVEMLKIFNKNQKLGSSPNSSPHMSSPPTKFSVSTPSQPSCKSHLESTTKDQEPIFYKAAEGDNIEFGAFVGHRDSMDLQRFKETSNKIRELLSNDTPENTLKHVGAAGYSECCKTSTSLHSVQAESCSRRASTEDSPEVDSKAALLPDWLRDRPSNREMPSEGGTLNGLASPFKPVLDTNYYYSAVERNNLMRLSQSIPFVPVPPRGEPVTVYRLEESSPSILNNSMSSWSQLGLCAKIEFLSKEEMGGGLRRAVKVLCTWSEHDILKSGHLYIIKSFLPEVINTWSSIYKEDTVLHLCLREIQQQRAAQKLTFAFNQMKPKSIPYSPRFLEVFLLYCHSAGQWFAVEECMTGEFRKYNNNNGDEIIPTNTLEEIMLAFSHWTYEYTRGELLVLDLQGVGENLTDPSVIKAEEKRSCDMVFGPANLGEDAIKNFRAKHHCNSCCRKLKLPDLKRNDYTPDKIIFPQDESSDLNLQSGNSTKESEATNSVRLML
UniProt P11142: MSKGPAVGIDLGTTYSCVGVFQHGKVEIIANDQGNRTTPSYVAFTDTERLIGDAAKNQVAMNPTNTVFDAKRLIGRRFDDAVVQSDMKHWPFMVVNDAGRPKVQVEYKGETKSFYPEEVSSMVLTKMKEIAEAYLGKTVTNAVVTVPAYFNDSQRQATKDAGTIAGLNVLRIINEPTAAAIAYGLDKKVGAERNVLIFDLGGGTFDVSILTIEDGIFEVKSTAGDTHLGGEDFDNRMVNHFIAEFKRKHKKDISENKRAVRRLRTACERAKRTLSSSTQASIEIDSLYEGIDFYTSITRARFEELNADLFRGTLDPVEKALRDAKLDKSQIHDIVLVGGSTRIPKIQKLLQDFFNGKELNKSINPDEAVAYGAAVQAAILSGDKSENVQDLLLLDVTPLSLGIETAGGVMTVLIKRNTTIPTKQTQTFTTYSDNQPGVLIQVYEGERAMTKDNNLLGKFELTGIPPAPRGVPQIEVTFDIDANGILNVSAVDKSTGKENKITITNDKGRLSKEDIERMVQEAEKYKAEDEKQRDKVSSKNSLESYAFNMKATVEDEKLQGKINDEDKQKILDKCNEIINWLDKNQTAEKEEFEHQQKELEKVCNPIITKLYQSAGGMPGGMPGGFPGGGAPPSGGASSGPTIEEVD

Columns and labels:
[1] = target: HA-tagged TRPM6 (mouse, full length, canonical splice form) (mouse) (UniProt Q8CIR4); experiment: affinity purification with mass spectrometry; larger scale immunoprecipitation with anti-HA agarose from HEK cells co-expressing TRPM6, TRPM7 and PCDH15; eluates by shotgun tandem mass spectrometry (Thermo Velos ion trap)
[2] = target: HA-tagged TRPM7 (mouse, full length, canonical splice form) (mouse) (UniProt Q923J1); experiment: as above

binding [1]: binds | binding [2]: binds
Substance: human heat shock protein cognate 71 (from UniProt P11142 1-646)
